Experimental findings from paper PMC9061300 are described below.

The chains behind the UniProt entries cited, without tags or fusion partners.
UniProt P49790: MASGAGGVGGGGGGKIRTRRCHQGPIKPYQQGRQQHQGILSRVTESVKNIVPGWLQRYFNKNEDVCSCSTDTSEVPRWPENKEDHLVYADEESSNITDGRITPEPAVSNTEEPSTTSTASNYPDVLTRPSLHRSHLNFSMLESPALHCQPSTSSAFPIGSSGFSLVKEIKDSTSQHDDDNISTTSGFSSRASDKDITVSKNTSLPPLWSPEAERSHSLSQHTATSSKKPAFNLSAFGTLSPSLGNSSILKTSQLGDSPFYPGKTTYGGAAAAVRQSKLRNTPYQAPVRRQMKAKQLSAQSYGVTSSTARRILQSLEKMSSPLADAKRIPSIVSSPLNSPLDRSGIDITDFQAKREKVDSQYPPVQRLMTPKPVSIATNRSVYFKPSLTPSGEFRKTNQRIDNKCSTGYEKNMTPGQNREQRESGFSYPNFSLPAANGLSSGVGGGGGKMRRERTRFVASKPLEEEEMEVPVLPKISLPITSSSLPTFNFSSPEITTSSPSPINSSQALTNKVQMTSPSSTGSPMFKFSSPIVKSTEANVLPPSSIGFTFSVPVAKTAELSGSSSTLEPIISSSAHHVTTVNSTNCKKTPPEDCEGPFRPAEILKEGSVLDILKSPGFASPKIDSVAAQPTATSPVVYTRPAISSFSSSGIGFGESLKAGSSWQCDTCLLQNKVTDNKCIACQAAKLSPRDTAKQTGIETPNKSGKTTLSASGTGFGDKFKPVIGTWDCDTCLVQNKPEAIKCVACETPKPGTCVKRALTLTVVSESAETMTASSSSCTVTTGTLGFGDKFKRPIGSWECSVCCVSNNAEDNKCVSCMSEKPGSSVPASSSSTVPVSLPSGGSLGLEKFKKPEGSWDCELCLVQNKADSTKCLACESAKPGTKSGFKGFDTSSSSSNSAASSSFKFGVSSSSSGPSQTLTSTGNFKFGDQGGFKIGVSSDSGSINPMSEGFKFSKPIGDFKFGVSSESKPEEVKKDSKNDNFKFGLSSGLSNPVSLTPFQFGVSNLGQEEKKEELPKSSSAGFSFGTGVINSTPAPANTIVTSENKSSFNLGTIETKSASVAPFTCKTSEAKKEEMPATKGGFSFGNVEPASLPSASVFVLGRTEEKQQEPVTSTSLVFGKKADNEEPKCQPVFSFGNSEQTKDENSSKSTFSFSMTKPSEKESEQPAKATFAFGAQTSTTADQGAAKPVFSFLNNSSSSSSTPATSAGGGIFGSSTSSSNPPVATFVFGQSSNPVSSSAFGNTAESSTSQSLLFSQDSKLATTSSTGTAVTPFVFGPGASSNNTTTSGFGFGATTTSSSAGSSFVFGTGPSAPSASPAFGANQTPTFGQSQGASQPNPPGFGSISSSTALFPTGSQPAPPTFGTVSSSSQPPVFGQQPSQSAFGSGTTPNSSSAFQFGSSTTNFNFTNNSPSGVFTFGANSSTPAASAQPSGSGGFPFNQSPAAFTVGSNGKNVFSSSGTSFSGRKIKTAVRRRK
UniProt Q96HA1: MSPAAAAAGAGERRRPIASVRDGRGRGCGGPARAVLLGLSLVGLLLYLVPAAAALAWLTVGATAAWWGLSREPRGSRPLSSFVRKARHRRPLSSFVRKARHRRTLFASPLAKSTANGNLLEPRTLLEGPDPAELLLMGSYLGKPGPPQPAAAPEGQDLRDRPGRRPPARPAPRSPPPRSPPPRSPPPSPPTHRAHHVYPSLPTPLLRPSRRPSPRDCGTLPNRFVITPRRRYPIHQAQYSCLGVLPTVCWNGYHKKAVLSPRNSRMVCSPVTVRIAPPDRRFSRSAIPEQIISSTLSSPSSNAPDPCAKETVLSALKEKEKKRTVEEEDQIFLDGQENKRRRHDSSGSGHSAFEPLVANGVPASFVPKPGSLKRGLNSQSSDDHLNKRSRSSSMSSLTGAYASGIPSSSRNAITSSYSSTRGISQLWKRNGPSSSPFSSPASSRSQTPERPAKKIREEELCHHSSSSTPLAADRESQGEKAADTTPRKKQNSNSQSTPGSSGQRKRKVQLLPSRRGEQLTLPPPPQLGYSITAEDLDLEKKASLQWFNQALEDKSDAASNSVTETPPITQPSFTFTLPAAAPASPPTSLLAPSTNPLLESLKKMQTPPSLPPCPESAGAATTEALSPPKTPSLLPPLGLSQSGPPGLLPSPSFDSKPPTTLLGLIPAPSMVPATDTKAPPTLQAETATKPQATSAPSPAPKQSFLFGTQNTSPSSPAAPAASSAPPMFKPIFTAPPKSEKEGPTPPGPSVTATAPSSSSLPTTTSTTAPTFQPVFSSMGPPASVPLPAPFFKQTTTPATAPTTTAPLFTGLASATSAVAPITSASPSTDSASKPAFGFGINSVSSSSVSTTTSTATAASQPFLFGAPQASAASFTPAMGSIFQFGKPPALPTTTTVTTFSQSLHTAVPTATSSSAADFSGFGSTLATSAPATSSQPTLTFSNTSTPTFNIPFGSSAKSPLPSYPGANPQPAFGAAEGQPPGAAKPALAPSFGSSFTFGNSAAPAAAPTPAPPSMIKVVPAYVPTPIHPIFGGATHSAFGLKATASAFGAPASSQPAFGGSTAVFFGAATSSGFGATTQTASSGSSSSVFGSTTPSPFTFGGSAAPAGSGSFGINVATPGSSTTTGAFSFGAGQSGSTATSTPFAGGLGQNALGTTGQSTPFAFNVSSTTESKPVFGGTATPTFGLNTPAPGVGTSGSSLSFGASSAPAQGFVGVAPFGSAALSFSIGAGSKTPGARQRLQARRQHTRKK
UniProt A8CG34: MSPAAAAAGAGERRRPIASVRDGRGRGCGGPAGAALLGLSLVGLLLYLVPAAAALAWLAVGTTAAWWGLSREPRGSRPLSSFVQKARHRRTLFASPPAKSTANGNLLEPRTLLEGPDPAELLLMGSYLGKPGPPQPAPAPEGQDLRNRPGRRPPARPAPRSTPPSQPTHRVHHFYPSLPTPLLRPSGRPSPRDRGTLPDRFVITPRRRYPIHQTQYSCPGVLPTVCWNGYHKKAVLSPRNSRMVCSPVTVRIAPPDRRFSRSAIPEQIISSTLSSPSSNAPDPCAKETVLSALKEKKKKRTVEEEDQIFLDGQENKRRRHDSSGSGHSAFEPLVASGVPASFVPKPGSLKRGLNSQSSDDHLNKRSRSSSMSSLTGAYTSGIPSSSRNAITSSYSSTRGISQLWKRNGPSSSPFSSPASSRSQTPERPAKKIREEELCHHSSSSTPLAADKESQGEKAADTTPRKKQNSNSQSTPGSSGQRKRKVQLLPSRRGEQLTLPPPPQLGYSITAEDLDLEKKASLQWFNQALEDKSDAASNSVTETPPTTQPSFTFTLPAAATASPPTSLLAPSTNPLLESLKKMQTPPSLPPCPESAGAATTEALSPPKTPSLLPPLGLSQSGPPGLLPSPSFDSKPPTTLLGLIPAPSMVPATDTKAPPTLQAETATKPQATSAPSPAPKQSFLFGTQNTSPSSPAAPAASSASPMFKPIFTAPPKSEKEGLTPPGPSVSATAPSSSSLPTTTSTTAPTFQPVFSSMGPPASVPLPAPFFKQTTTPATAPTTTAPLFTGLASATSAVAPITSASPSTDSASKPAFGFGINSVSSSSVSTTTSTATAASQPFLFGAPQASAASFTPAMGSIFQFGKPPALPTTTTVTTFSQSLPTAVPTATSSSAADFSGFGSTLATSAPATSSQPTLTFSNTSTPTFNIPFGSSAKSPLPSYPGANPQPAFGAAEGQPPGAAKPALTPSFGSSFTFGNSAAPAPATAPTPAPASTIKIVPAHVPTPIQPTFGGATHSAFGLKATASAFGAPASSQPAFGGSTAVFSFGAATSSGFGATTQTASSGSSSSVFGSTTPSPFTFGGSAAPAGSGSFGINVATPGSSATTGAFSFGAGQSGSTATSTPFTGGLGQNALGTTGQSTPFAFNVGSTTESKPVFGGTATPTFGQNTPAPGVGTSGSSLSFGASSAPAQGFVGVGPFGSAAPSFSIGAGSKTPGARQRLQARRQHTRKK

The assay addresses T1, Flag-BirA*-IPO11 (importin 11) (UniProt Q9UI26).
T1 sequence: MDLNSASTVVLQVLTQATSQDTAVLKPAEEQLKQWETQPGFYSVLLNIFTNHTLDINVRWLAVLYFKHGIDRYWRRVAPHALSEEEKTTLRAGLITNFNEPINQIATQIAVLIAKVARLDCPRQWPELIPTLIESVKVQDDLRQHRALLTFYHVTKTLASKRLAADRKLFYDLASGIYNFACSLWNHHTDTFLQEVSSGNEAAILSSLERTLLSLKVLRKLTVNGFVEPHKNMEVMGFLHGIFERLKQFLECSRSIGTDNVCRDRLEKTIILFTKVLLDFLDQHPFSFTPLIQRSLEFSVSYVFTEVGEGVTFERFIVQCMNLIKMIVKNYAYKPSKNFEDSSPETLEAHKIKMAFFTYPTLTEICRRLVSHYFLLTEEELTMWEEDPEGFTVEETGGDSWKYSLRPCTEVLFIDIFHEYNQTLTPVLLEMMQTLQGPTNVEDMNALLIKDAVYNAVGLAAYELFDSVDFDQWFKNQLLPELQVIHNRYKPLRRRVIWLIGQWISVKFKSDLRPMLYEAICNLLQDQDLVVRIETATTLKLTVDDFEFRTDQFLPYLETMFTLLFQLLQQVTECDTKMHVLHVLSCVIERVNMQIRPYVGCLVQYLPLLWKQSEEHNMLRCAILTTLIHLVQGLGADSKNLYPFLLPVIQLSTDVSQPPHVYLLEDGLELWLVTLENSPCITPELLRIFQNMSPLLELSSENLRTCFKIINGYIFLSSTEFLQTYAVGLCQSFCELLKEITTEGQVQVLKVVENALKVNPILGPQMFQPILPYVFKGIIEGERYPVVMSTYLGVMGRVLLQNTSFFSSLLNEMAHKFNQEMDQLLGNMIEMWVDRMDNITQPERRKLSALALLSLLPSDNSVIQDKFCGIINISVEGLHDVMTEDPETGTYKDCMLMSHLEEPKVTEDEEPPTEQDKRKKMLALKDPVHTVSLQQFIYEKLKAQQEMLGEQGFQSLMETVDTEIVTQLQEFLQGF
In words: proximity labelling; BioID: Flag-BirA*-IPO11 induced in HEK293T-REx cells; biotinylated proteins identified by mass spectrometry; compared with the Flag-BirA* control.

Results are given in words; binding and its absence hold for the method and conditions named. Binding seen in cells or lysates may run through a third protein. Here binding means that the protein was enriched with, or labelled near, the bait; the list need not be complete. Where a sequence is shown, tags or fusion partners need not be part of it.

As for NUP153 (from UniProt P49790 1-1475), the binding entry was “binds”.
Under POM121 (from UniProt Q96HA1 1-1249) stands “binds”; under POM121C (from UniProt A8CG34 1-1229), “binds”.

B1: basic leucine zipper and W2 domains 2 (BZW2) (protein, UniProt Q9Y6E2-1 1-419)
chain: MNKHQKPVLTGQRFKTRKRDEKEKFEPTVFRDTLVQGLNEAGDDLEAVAKFLDSTGSRLDYRRYADTLFDILVAGSMLAPGGTRIDDGDKTKMTNHCVFSANEDHETIRNYAQVFNKLIRRYKYLEKAFEDEMKKLLLFLKAFSETEQTKLAMLSGILLGNGTLPATILTSLFTDSLVKEGIAASFAVKLFKAWMAEKDANSVTSSLRKANLDKRLLELFPVNRQSVDHFAKYFTDAGLKELSDFLRVQQSLGTRKELQKELQERLSQECPIKEVVLYVKEEMKRNDLPETAVIGLLWTCIMNAVEWNKKEELVAEQALKHLKQYAPLLAVFSSQGQSELILLQKVQEYCYDNIHFMKAFQKIVVLFYKADVLSEEAILKWYKEAHVAKGKSVFLDQMKKFVEWLQNAEEESESEGEEN
In the case of B1, the binding result is given as “binds”.

B2: NUP50 (protein, UniProt Q9UKX7 1-468)
chain: MAKRNAEKELTDRNWDQEDEAEEVGTFSMASEEVLKNRAIKKAKRRNVGFESDTGGAFKGFKGLVVPSGGGRFSGFGSGAGGKPLEGLSNGNNITSAPPFASAKAAADPKVAFGSLAANGPTTLVDKVSNPKTNGDSQQPSSSGLASSKACVGNAYHKQLAALNCSVRDWIVKHVNTNPLCDLTPIFKDYEKYLANIEQQHGNSGRNSESESNKVAAETQSPSLFGSTKLQQESTFLFHGNKTEDTPDKKMEVASEKKTDPSSLGATSASFNFGKKVDSSVLGSLSSVPLTGFSFSPGNSSLFGKDTTQSKPVSSPFPTKPLEGQAEGDSGECKGGDEEENDEPPKVVVTEVKEEDAFYSKKCKLFYKKDNEFKEKGIGTLHLKPTANQKTQLLVRADTNLGNILLNVLIPPNMPCTRTGKNNVLIVCVPNPPIDEKNATMPVTMLIRVKTSEDADELHKILLEKKDA
With B2, the binding entry is recorded as “binds”.

B3: basic leucine zipper and W2 domains 1 (BZW1) (protein, UniProt Q7L1Q6-1 1-419)
chain: MNNQKQQKPTLSGQRFKTRKRDEKERFDPTQFQDCIIQGLTETGTDLEAVAKFLDASGAKLDYRRYAETLFDILVAGGMLAPGGTLADDMMRTDVCVFAAQEDLETMQAFAQVFNKLIRRYKYLEKGFEDEVKKLLLFLKGFSESERNKLAMLTGVLLANGTLNASILNSLYNENLVKEGVSAAFAVKLFKSWINEKDINAVAASLRKVSMDNRLMELFPANKQSVEHFTKYFTEAGLKELSEYVRNQQTIGARKELQKELQEQMSRGDPFKDIILYVKEEMKKNNIPEPVVIGIVWSSVMSTVEWNKKEELVAEQAIKHLKQYSPLLAAFTTQGQSELTLLLKIQEYCYDNIHFMKAFQKIVVLFYKAEVLSEEPILKWYKDAHVAKGKSVFLEQMKKFVEWLKNAEEESESEAEEGD
As to B3, the binding result is “binds”.
